Record: PubChem BioAssay AID1508597 (Cure First, 2020)
Test: 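Genes whose silencing sensitises or protects ovarian cancer cells against rucaparib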 (primary screen). Cells: human ovarian carcinoma lines grown from tumours: OCI-P5x (papillary serous) and OCI-C5x (clear cell). Reagent: siRNA pool against human genes, 1.25 pmol siRNA per well. Duration: 72 h or 96 h, depending on the cell culture. Conditions: rucaparib 20 µM (about IC30) or vehicle, present until read-out. Read-out: 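Luminescent ATP-based viability assay read 72 or 96 h after transfection, depending on culture, given as normalised percent viability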. Direction: viability, normalised: higher = more viable cells remaining. Rule for the call: 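Active when normalised viability falls below 80 percent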. Meaning of the calls: active = viability under 80%; inactive = viability 80% or more.
Here is one part, drawn at random, of about 2,100 reagents tested. 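Calls flag viability under 80% in either arm, not effects specific to rucaparib; the reference for percent is not stated.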 Entries without a mark were called inactive. Not given: the 100% reference.

gene knocked down	PubChem SID	rucaparib or vehicle	cell line	technical replicate	viability, normalised (%)
LYN (LYN proto-oncogene, Src family tyrosine kinase)	SID405527582	Rucaparib	OCI-C5x (clear cell)	1	36.3 (active)
LYN (LYN proto-oncogene, Src family tyrosine kinase)	SID405527582	Rucaparib	OCI-C5x (clear cell)	2	45.5 (active)
LYN (LYN proto-oncogene, Src family tyrosine kinase)	SID405527582	Rucaparib	OCI-C5x (clear cell)	3	45.8 (active)
LYN (LYN proto-oncogene, Src family tyrosine kinase)	SID405527582	Rucaparib	OCI-P5x (serous)	1	71.3 (active)
LYN (LYN proto-oncogene, Src family tyrosine kinase)	SID405527582	Rucaparib	OCI-P5x (serous)	2	96
LYN (LYN proto-oncogene, Src family tyrosine kinase)	SID405527582	Rucaparib	OCI-P5x (serous)	3	99.3
LYN (LYN proto-oncogene, Src family tyrosine kinase)	SID405527582	Vehicle	OCI-C5x (clear cell)	1	46.6 (active)
LYN (LYN proto-oncogene, Src family tyrosine kinase)	SID405527582	Vehicle	OCI-C5x (clear cell)	2	67.9 (active)
LYN (LYN proto-oncogene, Src family tyrosine kinase)	SID405527582	Vehicle	OCI-C5x (clear cell)	3	51.9 (active)
LYN (LYN proto-oncogene, Src family tyrosine kinase)	SID405527582	Vehicle	OCI-P5x (serous)	1	82.8
LYN (LYN proto-oncogene, Src family tyrosine kinase)	SID405527582	Vehicle	OCI-P5x (serous)	2	84.9
LYN (LYN proto-oncogene, Src family tyrosine kinase)	SID405527582	Vehicle	OCI-P5x (serous)	3	83.5
